# Laboratory results: PubChem BioAssay AID1508597 (Cure First, 2020)
# Purpose: 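Survival screen with siRNA in ovarian cancer cells derived from patients, with or without rucaparib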 (primary screen)
# Cell system: human ovarian carcinoma lines grown from tumours: OCI-P5x (papillary serous) and OCI-C5x (clear cell)
# Reagent: siRNA pool against human genes, 1.25 pmol siRNA per well
# Timing: 72 h or 96 h, depending on the cell culture
# Treatment: rucaparib 20 µM (about IC30) or vehicle, present until read-out
# Rucaparib or vehicle: Vehicle
# Cell line: OCI-P5x (serous)
# Read-out: 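Luminescent ATP-based viability assay read 72 or 96 h after transfection, depending on culture, given as normalised percent viability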
# Reading the numbers: viability, normalised: higher = more viable cells remaining
# Call rule: 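a well counts as a hit if its normalised viability is under 80 percent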
# Calls: active = viability under 80%; inactive = viability 80% or more
# Shown is an unselected part of the about 2,100 reagents, under one of the conditions tested. 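Calls flag viability under 80% in either arm, not effects specific to rucaparib; the reference for percent is not stated.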 Unmarked entries are inactive. Some reagents were tested in more than one well and are listed for each. Not stated in the record: the 100% reference.
Gene,technical replicate,"viability, normalised (%)"
ADCK1 (GeneID 57143),1,68.7 (active)
ADCK1 (GeneID 57143),2,72.1 (active)
ADCK1 (GeneID 57143),3,85.1
CDYL (GeneID 9425),1,64.9 (active)
CDYL (GeneID 9425),2,81.6
CDYL (GeneID 9425),3,70.5 (active)
CDK6 (GeneID 1021),1,87.8
CDK6 (GeneID 1021),2,81.7
CDK6 (GeneID 1021),3,76.3 (active)
ZMYND8 (GeneID 23613),1,61.9 (active)
ZMYND8 (GeneID 23613),2,68 (active)
ZMYND8 (GeneID 23613),3,45.8 (active)
MED19 (GeneID 219541),1,59.1 (active)
MED19 (GeneID 219541),2,58.5 (active)
MED19 (GeneID 219541),3,63 (active)
KDM2B (GeneID 84678),1,78.7 (active)
KDM2B (GeneID 84678),2,92.4
KDM2B (GeneID 84678),3,82.1
SERPINE2 (GeneID 5270),1,71.5 (active)
SERPINE2 (GeneID 5270),2,72.1 (active)
SERPINE2 (GeneID 5270),3,87.7
SUMO1 (GeneID 7341),1,71.9 (active)
SUMO1 (GeneID 7341),2,61.7 (active)
SUMO1 (GeneID 7341),3,47.2 (active)
BRDT (GeneID 676),1,54 (active)
BRDT (GeneID 676),1,69.9 (active)
BRDT (GeneID 676),2,71.2 (active)
BRDT (GeneID 676),2,44.9 (active)
BRDT (GeneID 676),3,80.9
BRDT (GeneID 676),3,62.9 (active)
ATAD2 (GeneID 29028),1,69.6 (active)
ATAD2 (GeneID 29028),2,86.2
ATAD2 (GeneID 29028),3,49.6 (active)
TYK2 (GeneID 7297),1,63.8 (active)
TYK2 (GeneID 7297),2,82
TYK2 (GeneID 7297),3,87.3
APTX (GeneID 54840),1,68.3 (active)
APTX (GeneID 54840),2,56 (active)
APTX (GeneID 54840),3,72.8 (active)

2 successive reagents already listed, quoted:
Gene,technical replicate,"viability, normalised (%)"
KDM2B (GeneID 84678),3,82.1
SERPINE2 (GeneID 5270),1,71.5 (active)
